Some of the results follow.
Key:
Assay in all cases: log2 fold change, soluble protein after heating vs DMSO (PISA); higher = thermal stabilisation; K562 lysate, 10 uM; active = over 0.2 and 3.5 SD of the protein, either way, in both replicates (recomputed)
ibrutinib = compound: C=CC(=O)N1CCC[C@@H](n2nc(-c3ccc(Oc4ccccc4)cc3)c3c(N)ncnc32)C1 [ibrutinib]
Outline: (§1)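 Values give the log-two fold change in thermal stability against solvent controls, from duplicates. Crude K562 extract at 1 mg/mL protein, made by dounce homogenisation in PBS pH 7.4 with 1 mM MgCl2, was treated with 10 μM compound for 30 min. After 3 min heating across 48°C-58°C, aliquots were pooled, adjusted to 0.5% NP-40 at 4°C and centrifuged at 21,000xg for 90 min. The supernatant was measured by TMTpro 16plex LC-MS/MS with channel sums equalised.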

Chains of the proteins cited; added tags and fusions are not shown. Lines headed by an entry give the natural chain unless they say otherwise; changes in a name come on top.
UniProt Q9Y250: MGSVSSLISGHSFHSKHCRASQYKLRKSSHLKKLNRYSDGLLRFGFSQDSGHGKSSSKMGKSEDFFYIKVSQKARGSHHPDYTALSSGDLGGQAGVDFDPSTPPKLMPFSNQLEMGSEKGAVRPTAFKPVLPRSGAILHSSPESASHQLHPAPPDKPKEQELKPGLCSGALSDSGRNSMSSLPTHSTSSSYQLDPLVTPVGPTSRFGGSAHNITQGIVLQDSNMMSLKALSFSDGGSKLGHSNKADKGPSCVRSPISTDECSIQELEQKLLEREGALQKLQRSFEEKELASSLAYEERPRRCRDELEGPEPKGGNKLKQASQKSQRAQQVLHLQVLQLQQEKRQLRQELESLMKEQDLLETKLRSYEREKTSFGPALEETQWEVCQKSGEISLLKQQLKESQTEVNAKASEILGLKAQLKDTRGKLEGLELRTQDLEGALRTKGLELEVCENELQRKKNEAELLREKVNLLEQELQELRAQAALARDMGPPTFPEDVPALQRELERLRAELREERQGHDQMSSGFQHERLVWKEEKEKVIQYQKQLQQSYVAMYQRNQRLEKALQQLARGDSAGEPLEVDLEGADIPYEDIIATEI
UniProt P28482, whole entry, looked up: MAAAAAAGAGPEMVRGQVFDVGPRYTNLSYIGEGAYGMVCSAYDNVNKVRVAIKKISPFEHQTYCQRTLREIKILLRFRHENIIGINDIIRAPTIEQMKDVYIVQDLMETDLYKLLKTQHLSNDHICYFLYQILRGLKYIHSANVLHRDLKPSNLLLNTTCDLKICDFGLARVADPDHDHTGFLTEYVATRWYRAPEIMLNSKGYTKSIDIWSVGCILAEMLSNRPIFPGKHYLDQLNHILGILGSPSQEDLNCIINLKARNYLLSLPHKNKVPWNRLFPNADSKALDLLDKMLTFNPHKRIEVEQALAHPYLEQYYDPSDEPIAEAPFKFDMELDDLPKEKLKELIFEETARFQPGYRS
UniProt Q96S90: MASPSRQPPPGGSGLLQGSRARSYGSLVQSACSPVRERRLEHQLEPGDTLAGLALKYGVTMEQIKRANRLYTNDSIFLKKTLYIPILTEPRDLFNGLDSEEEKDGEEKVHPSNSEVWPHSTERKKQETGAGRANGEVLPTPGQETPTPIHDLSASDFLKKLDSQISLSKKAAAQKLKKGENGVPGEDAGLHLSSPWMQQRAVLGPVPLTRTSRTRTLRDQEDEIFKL
UniProt O15525: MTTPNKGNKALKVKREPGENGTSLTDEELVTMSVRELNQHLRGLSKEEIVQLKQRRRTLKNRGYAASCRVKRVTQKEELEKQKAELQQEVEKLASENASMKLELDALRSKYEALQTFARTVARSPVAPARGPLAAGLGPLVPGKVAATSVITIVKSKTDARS
UniProt Q16644, whole entry, looked up: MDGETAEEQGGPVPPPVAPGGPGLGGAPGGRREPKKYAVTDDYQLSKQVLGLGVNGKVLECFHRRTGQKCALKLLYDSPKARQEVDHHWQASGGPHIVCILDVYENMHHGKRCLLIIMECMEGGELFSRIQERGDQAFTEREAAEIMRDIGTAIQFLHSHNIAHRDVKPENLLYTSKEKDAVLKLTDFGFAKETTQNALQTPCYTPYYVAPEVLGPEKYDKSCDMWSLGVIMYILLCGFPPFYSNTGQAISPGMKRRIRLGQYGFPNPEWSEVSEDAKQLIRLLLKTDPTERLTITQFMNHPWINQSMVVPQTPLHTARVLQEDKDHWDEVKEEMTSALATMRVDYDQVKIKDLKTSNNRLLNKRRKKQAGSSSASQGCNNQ
UniProt P46821: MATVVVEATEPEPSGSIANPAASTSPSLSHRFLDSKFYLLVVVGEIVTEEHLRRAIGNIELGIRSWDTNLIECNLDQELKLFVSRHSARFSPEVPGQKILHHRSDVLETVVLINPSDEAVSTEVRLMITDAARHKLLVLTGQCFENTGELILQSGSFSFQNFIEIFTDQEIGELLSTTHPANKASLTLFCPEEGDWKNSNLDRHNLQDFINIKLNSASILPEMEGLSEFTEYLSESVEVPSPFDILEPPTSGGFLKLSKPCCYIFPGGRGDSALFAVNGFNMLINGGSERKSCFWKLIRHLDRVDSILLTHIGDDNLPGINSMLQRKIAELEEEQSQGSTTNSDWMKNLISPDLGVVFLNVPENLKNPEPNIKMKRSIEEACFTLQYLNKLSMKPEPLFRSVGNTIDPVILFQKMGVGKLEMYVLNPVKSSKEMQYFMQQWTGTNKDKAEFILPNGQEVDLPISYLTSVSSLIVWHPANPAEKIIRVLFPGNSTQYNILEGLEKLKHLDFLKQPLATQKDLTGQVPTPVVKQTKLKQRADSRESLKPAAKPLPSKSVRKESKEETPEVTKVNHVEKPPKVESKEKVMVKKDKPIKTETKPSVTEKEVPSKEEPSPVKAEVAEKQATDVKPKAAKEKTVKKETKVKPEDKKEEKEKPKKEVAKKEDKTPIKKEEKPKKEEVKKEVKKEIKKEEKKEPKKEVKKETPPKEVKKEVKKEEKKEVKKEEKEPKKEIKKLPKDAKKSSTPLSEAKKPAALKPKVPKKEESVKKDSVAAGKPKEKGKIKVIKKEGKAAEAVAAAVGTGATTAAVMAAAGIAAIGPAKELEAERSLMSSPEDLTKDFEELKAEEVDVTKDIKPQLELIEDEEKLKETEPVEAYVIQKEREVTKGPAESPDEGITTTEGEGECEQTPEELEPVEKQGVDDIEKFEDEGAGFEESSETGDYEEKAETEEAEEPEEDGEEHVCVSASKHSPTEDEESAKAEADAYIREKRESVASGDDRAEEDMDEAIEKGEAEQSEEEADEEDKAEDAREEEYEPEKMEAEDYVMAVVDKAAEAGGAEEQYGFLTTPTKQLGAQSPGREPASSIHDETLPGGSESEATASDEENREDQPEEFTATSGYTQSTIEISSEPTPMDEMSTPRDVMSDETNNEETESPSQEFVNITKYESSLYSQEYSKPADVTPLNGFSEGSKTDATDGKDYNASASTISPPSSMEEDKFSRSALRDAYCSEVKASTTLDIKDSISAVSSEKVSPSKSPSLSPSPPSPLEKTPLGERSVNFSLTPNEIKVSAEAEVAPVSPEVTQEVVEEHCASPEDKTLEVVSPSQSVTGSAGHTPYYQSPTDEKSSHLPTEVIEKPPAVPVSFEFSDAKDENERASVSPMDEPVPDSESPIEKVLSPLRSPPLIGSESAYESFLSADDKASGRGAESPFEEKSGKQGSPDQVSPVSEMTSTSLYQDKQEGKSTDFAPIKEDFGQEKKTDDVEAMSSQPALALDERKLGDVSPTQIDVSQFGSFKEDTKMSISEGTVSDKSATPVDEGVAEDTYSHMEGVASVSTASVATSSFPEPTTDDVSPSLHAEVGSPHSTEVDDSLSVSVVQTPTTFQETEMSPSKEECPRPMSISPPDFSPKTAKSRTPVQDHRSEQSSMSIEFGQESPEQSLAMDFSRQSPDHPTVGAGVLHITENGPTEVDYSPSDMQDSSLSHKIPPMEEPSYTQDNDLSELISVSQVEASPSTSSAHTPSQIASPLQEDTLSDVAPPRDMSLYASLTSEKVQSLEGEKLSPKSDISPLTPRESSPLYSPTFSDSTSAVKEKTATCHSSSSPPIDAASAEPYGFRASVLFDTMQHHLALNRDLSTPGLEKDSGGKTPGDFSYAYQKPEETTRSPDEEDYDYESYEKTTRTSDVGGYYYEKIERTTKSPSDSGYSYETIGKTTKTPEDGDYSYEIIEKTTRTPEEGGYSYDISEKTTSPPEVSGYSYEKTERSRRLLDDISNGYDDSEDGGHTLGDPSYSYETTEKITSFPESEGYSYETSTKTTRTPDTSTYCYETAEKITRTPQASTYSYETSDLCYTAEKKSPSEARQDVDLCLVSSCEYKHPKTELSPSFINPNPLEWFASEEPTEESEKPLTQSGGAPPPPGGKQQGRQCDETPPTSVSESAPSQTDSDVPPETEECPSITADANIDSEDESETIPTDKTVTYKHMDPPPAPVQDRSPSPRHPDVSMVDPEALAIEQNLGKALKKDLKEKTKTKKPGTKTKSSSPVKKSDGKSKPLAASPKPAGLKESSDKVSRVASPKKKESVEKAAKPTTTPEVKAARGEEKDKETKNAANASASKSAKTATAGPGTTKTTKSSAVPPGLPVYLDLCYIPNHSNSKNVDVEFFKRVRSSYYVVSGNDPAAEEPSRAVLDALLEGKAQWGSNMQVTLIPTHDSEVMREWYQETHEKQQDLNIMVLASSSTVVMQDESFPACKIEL
UniProt O75608: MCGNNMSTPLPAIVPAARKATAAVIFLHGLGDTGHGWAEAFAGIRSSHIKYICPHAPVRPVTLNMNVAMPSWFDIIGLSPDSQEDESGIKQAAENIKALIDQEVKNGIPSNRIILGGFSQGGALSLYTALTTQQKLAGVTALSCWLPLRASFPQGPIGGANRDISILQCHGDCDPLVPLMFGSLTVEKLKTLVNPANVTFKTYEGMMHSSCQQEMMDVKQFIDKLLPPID
UniProt Q9NTJ4: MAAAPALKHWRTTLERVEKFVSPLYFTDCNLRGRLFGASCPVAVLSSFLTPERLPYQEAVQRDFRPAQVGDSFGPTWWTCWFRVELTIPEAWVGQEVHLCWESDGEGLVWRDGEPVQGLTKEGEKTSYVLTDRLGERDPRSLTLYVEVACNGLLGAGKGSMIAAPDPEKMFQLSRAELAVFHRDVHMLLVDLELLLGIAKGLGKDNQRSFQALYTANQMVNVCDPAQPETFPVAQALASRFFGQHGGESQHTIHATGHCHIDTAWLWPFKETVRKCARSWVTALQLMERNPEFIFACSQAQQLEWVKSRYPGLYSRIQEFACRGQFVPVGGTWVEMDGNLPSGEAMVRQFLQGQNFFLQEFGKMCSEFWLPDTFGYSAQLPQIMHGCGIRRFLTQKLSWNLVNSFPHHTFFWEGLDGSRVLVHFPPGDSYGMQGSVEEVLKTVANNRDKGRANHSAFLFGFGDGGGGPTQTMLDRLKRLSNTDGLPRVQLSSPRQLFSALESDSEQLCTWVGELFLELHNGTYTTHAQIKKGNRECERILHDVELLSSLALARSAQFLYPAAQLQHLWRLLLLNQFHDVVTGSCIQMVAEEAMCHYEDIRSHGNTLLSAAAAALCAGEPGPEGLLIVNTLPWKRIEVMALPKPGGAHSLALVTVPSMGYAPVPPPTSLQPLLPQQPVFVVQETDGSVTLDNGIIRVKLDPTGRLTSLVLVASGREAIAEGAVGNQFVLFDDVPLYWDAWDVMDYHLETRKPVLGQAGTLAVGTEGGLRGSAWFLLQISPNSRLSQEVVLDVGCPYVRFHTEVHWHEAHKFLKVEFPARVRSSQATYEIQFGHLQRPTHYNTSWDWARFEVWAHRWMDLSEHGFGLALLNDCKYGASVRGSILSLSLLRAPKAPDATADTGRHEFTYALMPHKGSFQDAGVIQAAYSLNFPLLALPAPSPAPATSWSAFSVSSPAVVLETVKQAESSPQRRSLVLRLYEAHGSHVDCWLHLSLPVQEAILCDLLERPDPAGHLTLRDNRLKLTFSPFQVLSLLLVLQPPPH
UniProt O95372: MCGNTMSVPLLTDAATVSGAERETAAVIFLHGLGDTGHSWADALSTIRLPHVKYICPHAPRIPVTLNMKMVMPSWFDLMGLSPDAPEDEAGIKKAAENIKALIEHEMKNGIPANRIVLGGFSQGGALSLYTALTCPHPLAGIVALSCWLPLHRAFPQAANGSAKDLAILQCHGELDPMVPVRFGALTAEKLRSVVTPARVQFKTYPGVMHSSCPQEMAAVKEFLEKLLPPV
UniProt P56192: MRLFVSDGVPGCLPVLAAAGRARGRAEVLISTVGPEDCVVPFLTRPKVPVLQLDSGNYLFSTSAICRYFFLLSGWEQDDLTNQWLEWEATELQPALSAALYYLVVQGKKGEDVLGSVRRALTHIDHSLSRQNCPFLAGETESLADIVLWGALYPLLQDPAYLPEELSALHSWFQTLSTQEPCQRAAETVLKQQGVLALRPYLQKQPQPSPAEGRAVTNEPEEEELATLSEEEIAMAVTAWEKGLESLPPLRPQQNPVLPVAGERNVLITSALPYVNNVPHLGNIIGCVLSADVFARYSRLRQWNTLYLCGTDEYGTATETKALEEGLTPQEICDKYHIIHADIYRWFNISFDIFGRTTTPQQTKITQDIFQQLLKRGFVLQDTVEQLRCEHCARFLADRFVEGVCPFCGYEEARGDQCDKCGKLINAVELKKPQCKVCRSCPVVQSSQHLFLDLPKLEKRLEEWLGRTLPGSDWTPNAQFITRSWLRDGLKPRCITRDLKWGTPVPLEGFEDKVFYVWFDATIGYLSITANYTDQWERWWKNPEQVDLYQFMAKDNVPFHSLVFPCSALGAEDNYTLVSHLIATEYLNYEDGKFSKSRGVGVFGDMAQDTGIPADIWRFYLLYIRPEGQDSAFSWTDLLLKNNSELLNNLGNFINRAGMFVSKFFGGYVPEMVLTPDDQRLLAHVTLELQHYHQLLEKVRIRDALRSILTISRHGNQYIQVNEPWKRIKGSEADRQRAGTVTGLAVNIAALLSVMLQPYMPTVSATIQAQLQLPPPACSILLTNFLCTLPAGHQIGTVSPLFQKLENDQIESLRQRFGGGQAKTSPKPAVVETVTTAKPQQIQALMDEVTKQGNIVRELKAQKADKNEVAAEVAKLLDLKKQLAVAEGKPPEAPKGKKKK

[1] = compound: CC(=O)c1cnc2ccc(-c3cc(Cl)c(O)c(Cl)c3)nc2c1N[C@H]1CC[C@H](CN(C)C)CC1
Outline: as §1

ralimetinib = compound: CC(C)(C)Cn1c(N)nc2ccc(-c3[nH]c(C(C)(C)C)nc3-c3ccc(F)cc3)nc21 [ralimetinib]
Outline: as §1

[2] = compound: CC(C)(O)CC(=O)NCCn1ccc2ncnc(Nc3ccc(Oc4cccc(C(F)(F)F)c4)c(Cl)c3)c21
Outline: as §1

[3] = compound: CC(C)C1=C2N=C(C=C(N2N=C1)NCC3=CC=CC=C3)NCCCCCCN
Outline: as §1

[4] = compound: CC1=C(C(CC(=O)N1)C2=CC=C(C=C2)C(F)(F)F)C(=O)NC3=C(C=C4C(=C3)C=NN4)F
Outline: as §1

[5] = compound: CC1=C(C2=C(C=C1)C(=O)C3=CC=CC=C3N2CCCN)C
Outline: as §1

[6] = compound: CC1=C(C=C(C=C1)NC(=O)C2=CC(=CC=C2)C(C)(C)C#N)NC3=CC4=C(C=C3)N=CN(C4=O)C
Outline: as §1

[7] = compound: CC1=C(C=C(C=C1)NC(=O)C2=CC(=CC=C2)N(C)C)NC(=O)C3=CC=C(C=C3)O
Outline: as §1

[8] = compound: CC1=CC=C(C=C1)SC2=C3C=C(SC3=CN=C2)C(=O)N
Outline: as §1

| Target | log2 fold change (ibrutinib) | log2 fold change [1] | log2 fold change (ralimetinib) | log2 fold change [2] | log2 fold change [3] | log2 fold change [4] | log2 fold change [5] | log2 fold change [6] | log2 fold change [7] | log2 fold change [8] |
| --- | --- | --- | --- | --- | --- | --- | --- | --- | --- | --- |
| MAP7D3 (UniProt Q8IWC1) | inactive: -0.073 | inactive: 0.005 | inactive: 0.023 | inactive: -0.019 | inactive: -0.22 | inactive: 0.035 | inactive: 0.009 | inactive: 0.046 | inactive: 0.087 | inactive: -0.039 |
| MAPRE2 (UniProt Q15555) | inactive: 0.004 | inactive: -0.006 | inactive: 0.023 | inactive: 0.01 | inactive: 0.113 | inactive: 0.02 | inactive: -0.007 | inactive: -0.002 | inactive: 0.028 | inactive: -0.008 |
| MAK16 (UniProt Q9BXY0) | inactive: -0.012 | inactive: 0.005 | inactive: -0.031 | inactive: -0.067 | inactive: 0.03 | inactive: -0.039 | inactive: -0.026 | inactive: 0.006 | inactive: 0.003 | inactive: -0.065 |
| LZTS1 (UniProt Q9Y250) | inactive: 0.104 | inactive: -0.008 | inactive: 0.049 | inactive: -0.176 | inactive: 0.116 | inactive: -0.028 | inactive: -0.233 | inactive: 0.705 | inactive: -0.111 | inactive: -0.007 |
| MAPK1 (UniProt P28482) | inactive: 0.001 | inactive: 0 | inactive: -0.066 | inactive: 0.012 | inactive: -0.029 | inactive: -0.022 | inactive: 0.023 | inactive: -0.039 | inactive: -0.03 | inactive: 0.003 |
| LYSMD1 (UniProt Q96S90) | inactive: 0.069 | inactive: 0.004 | inactive: -0.023 | inactive: -0.006 | inactive: 0.003 | inactive: -0.004 | inactive: 0.009 | inactive: 0.093 | inactive: -0.028 | inactive: -0.014 |
| MAGOHB (UniProt Q96A72) | inactive: 0.027 | inactive: 0 | inactive: 0.011 | inactive: 0.001 | inactive: 0.001 | inactive: -0.004 | inactive: 0.008 | inactive: -0.005 | inactive: 0.006 | inactive: 0.005 |
| MALSU1 (UniProt Q96EH3) | inactive: 0.172 | inactive: -0.009 | inactive: 0.024 | inactive: -0.044 | inactive: 0.015 | inactive: 0.009 | inactive: -0.014 | inactive: 0.033 | inactive: 0.038 | inactive: 0.018 |
| MAFG (UniProt O15525) | inactive: 0 | inactive: -0.186 | inactive: -0.03 | inactive: 0.017 | inactive: 0.013 | inactive: 0.036 | inactive: 0.084 | inactive: -0.01 | inactive: -0.036 | inactive: -0.117 |
| MARK1 (UniProt Q9P0L2) | inactive: -0.006 | inactive: -0.054 | inactive: 0.078 | inactive: 0.046 | inactive: 0.021 | inactive: 0.011 | inactive: 0.021 | inactive: 0.07 | inactive: 0.04 | inactive: 0.007 |
| MAST4 (UniProt O15021) | inactive: 0.019 | active: 0.423 | inactive: 0.04 | inactive: 0.061 | inactive: -0.032 | inactive: -0.075 | inactive: 0.032 | inactive: -0.173 | inactive: -0.023 | inactive: 0.049 |
| MAGEA9 (UniProt P43362) | inactive: 0.022 | inactive: -0.009 | inactive: -0.002 | inactive: -0.032 | inactive: -0.02 | inactive: -0.029 | inactive: -0.013 | inactive: 0.061 | inactive: 0.015 | inactive: 0.028 |
| MAPK9 (UniProt P45984) | inactive: -0.024 | active: 0.234 | active: 0.366 | inactive: 0.002 | inactive: -0.029 | inactive: -0.038 | inactive: -0.086 | inactive: 0.103 | inactive: -0.029 | inactive: -0.015 |
| MARK2 (UniProt E9PC69) | inactive: 0.139 | inactive: -0.053 | inactive: 0.014 | inactive: -0.004 | inactive: 0.015 | inactive: -0.012 | inactive: -0.063 | inactive: 0.024 | inactive: 0.045 | inactive: 0.012 |
| MAPK3 (UniProt P27361) | inactive: 0.001 | inactive: 0.017 | inactive: -0.02 | inactive: -0.018 | inactive: -0.033 | inactive: -0.012 | inactive: -0.006 | inactive: 0.026 | inactive: -0.022 | inactive: -0.028 |
| MAPKAPK3 (UniProt Q16644) | inactive: 0.011 | inactive: 0.026 | inactive: 0.006 | inactive: -0.003 | inactive: -0.011 | inactive: 0.065 | inactive: -0.027 | inactive: 0.082 | inactive: 0.029 | inactive: 0.033 |
| MAP1B (UniProt P46821) | inactive: -0.006 | inactive: -0.004 | inactive: -0.011 | inactive: -0.005 | inactive: -0.004 | inactive: -0.027 | inactive: 0 | inactive: 0.01 | inactive: 0.017 | inactive: -0.017 |
| LYPLA1 (UniProt O75608) | inactive: 0.009 | inactive: -0.02 | inactive: -0.014 | inactive: -0.019 | inactive: 0.005 | inactive: -0.031 | inactive: -0.019 | inactive: -0.009 | inactive: -0.044 | inactive: 0.056 |
| MAT2B (UniProt Q9NZL9) | inactive: 0 | inactive: -0.008 | inactive: -0.005 | inactive: -0.006 | inactive: -0.002 | inactive: -0.023 | inactive: 0.016 | inactive: 0.015 | inactive: -0.013 | inactive: -0.005 |
| MAPKAPK5 (UniProt Q8IW41) | inactive: -0.001 | inactive: -0.008 | inactive: -0.024 | inactive: -0.012 | inactive: 0 | inactive: -0.057 | inactive: -0.01 | inactive: 0.034 | inactive: 0.048 | inactive: -0.066 |
| MAN2C1 isoform 4 (UniProt Q9NTJ4) | inactive: 0.051 | inactive: -0.017 | inactive: 0.076 | inactive: 0.043 | inactive: -0.032 | inactive: -0.044 | inactive: -0.069 | inactive: 0.003 | inactive: 0.001 | inactive: -0.011 |
| LYPLA2 (UniProt O95372) | inactive: -0.007 | inactive: -0.078 | inactive: 0.014 | inactive: 0.003 | inactive: 0.04 | inactive: -0.086 | inactive: 0.022 | inactive: 0.017 | inactive: 0.002 | inactive: 0.08 |
| MARS (UniProt P56192) | inactive: 0.001 | inactive: 0.001 | inactive: 0.04 | inactive: -0.01 | inactive: 0.03 | inactive: -0.004 | inactive: -0.001 | inactive: 0 | inactive: 0.045 | inactive: 0.012 |
| MAP3K20 isoform 2 (UniProt Q9NYL2) | inactive: 0.15 | inactive: 0.012 | inactive: -0.082 | inactive: 0.016 | inactive: -0.029 | inactive: -0.062 | inactive: 0.028 | inactive: 0.022 | inactive: -0.129 | inactive: 0.065 |
| MAN1B1 (UniProt Q9UKM7) | inactive: 0 | inactive: 0.025 | inactive: -0.05 | inactive: -0.014 | inactive: 0.025 | inactive: 0.046 | inactive: 0.025 | inactive: 0.066 | inactive: -0.056 | inactive: 0.025 |
| MAP3K7 (UniProt O43318) | inactive: 0.04 | inactive: 0.088 | inactive: 0 | inactive: 0.012 | inactive: 0.022 | inactive: 0.004 | inactive: -0.007 | inactive: 0.036 | inactive: 0.009 | inactive: -0.019 |
| MAP2K5 (UniProt Q13163) | inactive: 0.007 | inactive: -0.013 | inactive: 0.103 | inactive: -0.075 | inactive: -0.078 | inactive: -0.037 | inactive: -0.208 | inactive: 0.235 | inactive: 0.052 | inactive: -0.211 |
| LYSMD3 (UniProt Q7Z3D4) | inactive: 0.098 | inactive: -0.072 | inactive: 0.003 | inactive: -0.046 | inactive: -0.045 | inactive: -0.099 | inactive: -0.003 | inactive: 0.034 | inactive: 0.005 | inactive: -0.01 |
| MAP4K4 isoform 3 (UniProt O95819) | inactive: -0.052 | inactive: -0.021 | inactive: -0.065 | inactive: -0.002 | inactive: 0.046 | inactive: 0.067 | inactive: -0.042 | inactive: -0.022 | inactive: 0.062 | inactive: -0.056 |
| MAPK8 isoform 3 (UniProt P45983) | inactive: 0.038 | active: 0.445 | inactive: 0.294 | inactive: 0.025 | inactive: 0.035 | inactive: -0.057 | inactive: -0.017 | inactive: 0.013 | inactive: 0.047 | inactive: -0.012 |

Record cards, from the list above. Order of values: log2 fold change (ibrutinib)	log2 fold change [1]	log2 fold change (ralimetinib)	log2 fold change [2]	log2 fold change [3]	log2 fold change [4]	log2 fold change [5]	log2 fold change [6]	log2 fold change [7]	log2 fold change [8]
MAPKAPK5 (UniProt Q8IW41) is listed with inactive: -0.001	inactive: -0.008	inactive: -0.024	inactive: -0.012	inactive: 0	inactive: -0.057	inactive: -0.01	inactive: 0.034	inactive: 0.048	inactive: -0.066
MAP3K7 (UniProt O43318) is listed with inactive: 0.04	inactive: 0.088	inactive: 0	inactive: 0.012	inactive: 0.022	inactive: 0.004	inactive: -0.007	inactive: 0.036	inactive: 0.009	inactive: -0.019

Source: the supplement of paper PMC10849652
